Record: PubChem BioAssay AID1671195 (Yale University, 2021)
The deposit covers about 22,000 reagents; shown is a random part of them. Of all reagents, about 1,510 (6.9%) were called active. 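Active includes knockdowns raising or lowering LDL uptake; positive z-scores mean more uptake, negative mean less.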

Purpose: 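Genes whose knockdown alters LDL uptake in liver cancer cells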 (primary screen)
System: human Huh7 hepatoma cells
Reagents: siRNA pool against human genes, 18 nM
Duration: about 2 to 2.5 days of knockdown, then 8 h LDL uptake
Conditions: DiI-labelled LDL at 30 µg/ml for 8 h, in lipoprotein-deficient serum medium
Measurement: 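Per-cell DiI-LDL intensity by automated imaging; well means scaled to the plate median and given as a robust z-score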
Reading the numbers: robust z-score: higher = more LDL uptake after knockdown
Active means: 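Active when two or more replicates show a robust z-score above 2 or below -2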

With knock-down of TXNDC15, the record shows robust z-score, replicate 1 = -0.414; robust z-score, replicate 2 = -0.16; robust z-score, replicate 3 = -0.418; inactive. Against DNMBP, the entry reads robust z-score, replicate 1 = 1.32; robust z-score, replicate 2 = 0.332; robust z-score, replicate 3 = 2.85; inactive. For LOC137829 (retired record), the values are robust z-score, replicate 1 = -1.86; robust z-score, replicate 2 = -1.12; robust z-score, replicate 3 = -1.41; inactive. PLA2G2D showed robust z-score, replicate 1 = -0.169; robust z-score, replicate 2 = 0.186; robust z-score, replicate 3 = 0.0256; inactive. After knock-down of ZC3HAV1, the record shows robust z-score, replicate 1 = -0.69; robust z-score, replicate 2 = 0.527; robust z-score, replicate 3 = 0.0578; inactive. CHRND showed robust z-score, replicate 1 = 0.0447; robust z-score, replicate 2 = 0.923; robust z-score, replicate 3 = 0.509; inactive.

After knock-down of SPON2 the results were robust z-score, replicate 1 = -0.678; robust z-score, replicate 2 = -0.891; robust z-score, replicate 3 = -0.37; inactive. After knock-down of LINC00921, the record shows robust z-score, replicate 1 = 0.00593; robust z-score, replicate 2 = 0.0498; robust z-score, replicate 3 = 0.104; inactive. Knock-down of MAP1B gave: robust z-score, replicate 1 = -0.63; robust z-score, replicate 2 = -0.743; robust z-score, replicate 3 = -1.34; inactive. For ANXA11, the values are robust z-score, replicate 1 = 0.927; robust z-score, replicate 2 = 0.0848; robust z-score, replicate 3 = 0.552; inactive. Depletion of SHISA2 gave: robust z-score, replicate 1 = 0.0452; robust z-score, replicate 2 = 0.175; robust z-score, replicate 3 = -0.237; inactive. Silencing of KRT7 came out at: robust z-score, replicate 1 = -0.544; robust z-score, replicate 2 = 0.245; robust z-score, replicate 3 = -0.0312; inactive.

Depletion of PDGFRL resulted in: robust z-score, replicate 1 = -0.641; robust z-score, replicate 2 = -0.0753; robust z-score, replicate 3 = 0.0683; inactive. After knock-down of MYH4, the record shows robust z-score, replicate 1 = 0.873; robust z-score, replicate 2 = 0.00205; robust z-score, replicate 3 = 1.7; inactive. SPAG6 gave robust z-score, replicate 1 = -1.47; robust z-score, replicate 2 = -0.466; robust z-score, replicate 3 = -1.32; inactive. With knock-down of CARD14 the results were robust z-score, replicate 1 = -1.15; robust z-score, replicate 2 = -1.4; robust z-score, replicate 3 = -1.54; inactive. With knock-down of TRPM3, the screen gave robust z-score, replicate 1 = -1.15; robust z-score, replicate 2 = -1.49; robust z-score, replicate 3 = -1.31; inactive. After knock-down of ACTC1, the record shows robust z-score, replicate 1 = -0.496; robust z-score, replicate 2 = -0.417; robust z-score, replicate 3 = -0.565; inactive.

For RHBDL1, the values are robust z-score, replicate 1 = -2.05; robust z-score, replicate 2 = -1.75; robust z-score, replicate 3 = -1.89; inactive. After knock-down of LOC390256 (retired record), the screen gave robust z-score, replicate 1 = 0.404; robust z-score, replicate 2 = 0.268; robust z-score, replicate 3 = 0.404; inactive. RBPJ gave robust z-score, replicate 1 = -0.615; robust z-score, replicate 2 = 1.31; robust z-score, replicate 3 = 0.688; inactive. After knock-down of LOC389425 (retired record) the results were robust z-score, replicate 1 = 0.733; robust z-score, replicate 2 = 0.381; robust z-score, replicate 3 = 0.558; inactive. Silencing of PDE12 resulted in: robust z-score, replicate 1 = -0.857; robust z-score, replicate 2 = -0.868; robust z-score, replicate 3 = -0.8; inactive. TRPM8 scored robust z-score, replicate 1 = 0.52; robust z-score, replicate 2 = 0.102; robust z-score, replicate 3 = -0.314; inactive.

Just “robust z-score, replicate 2” (2 entries from above):
MAP1B	-0.743
ANXA11	0.0848
